Results deposited as PubChem BioAssay AID720505 (Drosophila RNAi Screening Center, 2013)
Test: 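Genes needed for store-operated calcium entry in fly cells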 (primary screen). Cells: Drosophila S2R+ cells. Reagent: long dsRNA against Drosophila genes. Challenge: thapsigargin (2 µM) in calcium-free buffer to empty internal stores, then 2 mM calcium added back. Read-out: 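Fluo-4 signal in 384-well plates read on a FLIPR after thapsigargin (2 µM, calcium-free) store depletion and 2 mM calcium add-back; unnormalised mean endpoint per well; screen run twice, selected wells retested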. Reading the numbers: calcium signal and retest calcium signal: higher = more calcium entry after store depletion. Active means: 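About 1500 genes called as lowering calcium entry, by varying amounts, judged against per-plate control wells with STIM1 as positive and Rho1 as negative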. Calls: active = called as lowering calcium entry; inactive = not called.
The deposit covers about 20,000 reagents; below is a random part of those with a known target gene and a result. In the full data, about 2,100 (10%) got an active call. 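Raw plate signals without normalisation; calls rest on control-based scores that were not deposited; replicate 2 separates called from uncalled poorly.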 Entries without a mark were called inactive. A plus sign joins genes that one reagent is predicted to hit. Not given: the amount of reagent, the time to read-out.

target | dsRNA | calcium signal, replicate 1 | calcium signal, replicate 2 | retest calcium signal, replicate 1 | retest calcium signal, replicate 2
CG15814 | DRSC19730 | 143 | 183 | – | –
CG7675 | DRSC16280 | 159 | 287 | – | –
CG5421 | DRSC02858 | 114 | 126 | – | –
Plzf | DRSC02994 | 109 | 113 | – | –
Spt7 | DRSC19997 | 147 | 102 | – | –
CG15406 | DRSC00420 | 143 | 96.5 | – | –
mRpS14 | DRSC19444 | 69.8 (active) | 177 | – | –
CG3868 | DRSC10380 | 121 | 120 | – | –
Naus | DRSC06011 | 131 | 107 | – | –
Naus | DRSC06469 | 209 | 124 | – | –
CG7523 | DRSC16254 | 217 | 176 | – | –
Ppox | DRSC17033 | 238 | 112 | – | –
Slbp | DRSC16863 | 124 | 135 | – | –
igl | DRSC07631 | 98.3 | 108 | – | –
CG8399 | DRSC07163 | 150 | 150 | – | –

Continued (3 carried over from the part before).
target | dsRNA | calcium signal, replicate 1 | calcium signal, replicate 2 | retest calcium signal, replicate 1 | retest calcium signal, replicate 2
Slbp | DRSC16863 | 124 | 135 | – | –
igl | DRSC07631 | 98.3 | 108 | – | –
CG8399 | DRSC07163 | 150 | 150 | – | –
Orc4 | DRSC04634 | 57.3 (active) | 162 | – | –
CG14259 | DRSC14754 | 176 | 200 | – | –
CG14957 | DRSC08416 | 75.5 | 115 | – | –
Muc18B | DRSC20064 | 73.4 (active) | 171 | – | –
Muc18B | DRSC21644 | 184 | 85.1 | – | –
Irc | DRSC16454 | 176 | 289 | – | –
Tbc1d15-17 | DRSC00313 | 102 | 190 | – | –
Rab4 + CG42239 | DRSC05667 | 132 | 89 | – | –
Tsp42Ef | DRSC06191 | 106 | 83.4 | – | –
CG8329 | DRSC10978 | 90.2 | 93.9 | – | –
Fatp2 | DRSC03971 | 91.2 | 6279 | 111 | 77.8
Fatp2 | DRSC04178 | 118 | 171 | – | –
Fatp2 | DRSC04330 | 148 | 261 | – | –
CG6034 | DRSC10572 | 114 | 133 | – | –
Scp2 | DRSC16854 | 87.3 | 66.8 | – | –
CG13609 | DRSC14612 | 168 | 149 | – | –
CG13609 | DRSC22843 | 104 | 102 | – | –
CG5561 | DRSC00688 | 155 | 155 | – | –
Ptp36E | DRSC03021 | 55.3 (active) | 70.8 | – | –
